From article PMC11212238 come the findings set out here.

Chains of the proteins cited; added tags and fusions are not shown.
UniProt P62491: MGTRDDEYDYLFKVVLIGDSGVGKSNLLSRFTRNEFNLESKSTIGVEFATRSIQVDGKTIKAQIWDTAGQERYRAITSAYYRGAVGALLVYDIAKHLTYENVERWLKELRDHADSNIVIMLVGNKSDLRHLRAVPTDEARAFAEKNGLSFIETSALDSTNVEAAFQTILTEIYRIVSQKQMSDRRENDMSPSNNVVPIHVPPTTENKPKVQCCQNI
UniProt P50990: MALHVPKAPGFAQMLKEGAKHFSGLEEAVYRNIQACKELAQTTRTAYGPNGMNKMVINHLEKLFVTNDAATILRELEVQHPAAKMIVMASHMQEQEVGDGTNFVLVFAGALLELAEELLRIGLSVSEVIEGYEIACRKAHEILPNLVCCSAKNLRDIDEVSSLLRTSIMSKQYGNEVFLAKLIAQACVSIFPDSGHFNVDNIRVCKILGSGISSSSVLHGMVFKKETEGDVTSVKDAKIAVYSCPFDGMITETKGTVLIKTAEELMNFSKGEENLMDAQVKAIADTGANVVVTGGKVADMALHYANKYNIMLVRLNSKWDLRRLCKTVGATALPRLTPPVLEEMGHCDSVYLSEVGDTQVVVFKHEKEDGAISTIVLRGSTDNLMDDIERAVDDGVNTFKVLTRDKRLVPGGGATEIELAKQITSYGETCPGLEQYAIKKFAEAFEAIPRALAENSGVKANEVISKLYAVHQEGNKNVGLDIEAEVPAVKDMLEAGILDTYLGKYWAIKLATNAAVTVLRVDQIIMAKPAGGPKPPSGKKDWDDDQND

This assay has as its target RAB11A (human (endogenous in SH-SY5Y)) (UniProt P62491). Briefly: proximity ligation; Duolink In Situ Red kit on fixed, permeabilised SH-SY5Y cells infected with EV-A71 S41 (MOI 0.1), 24 h.p.i.; uninfected cells too for CCT8 with RAB11A; pairs of mouse and rabbit primary antibodies.

These are yes or no findings as the source states them, for the method shown. In cells and extracts the contact can be indirect. Some binding calls cover weakened binding; strength is not graded here.

On to CCT8 (from UniProt P50990 1-548), for which the binding result is recorded as “binds”.
